Measured values: PubChem BioAssay AID1671190 (National Center for Advancing Translational Sciences (NCATS), 2021)
The whole screen tested about 580,000 compounds, of which about 6,100 (1.1%) were called active. The shares of active, inactive and inconclusive entries below differ from those in the screen. Calls come from the whole dose curve; as a rule, active = well fitted inhibition curve with a large enough effect; inconclusive = small, poorly fitted or top-dose-only effect, or another doubt; inactive = no such curve, though single readings can be large or run the other way. Potencies beside an inconclusive call are fits to weak or partial responses and may not hold up.

Amino acid sequences for entries named in this document (tags omitted). A change or cut given only in a name is not applied to a line headed by its entry.
UniProt P18054: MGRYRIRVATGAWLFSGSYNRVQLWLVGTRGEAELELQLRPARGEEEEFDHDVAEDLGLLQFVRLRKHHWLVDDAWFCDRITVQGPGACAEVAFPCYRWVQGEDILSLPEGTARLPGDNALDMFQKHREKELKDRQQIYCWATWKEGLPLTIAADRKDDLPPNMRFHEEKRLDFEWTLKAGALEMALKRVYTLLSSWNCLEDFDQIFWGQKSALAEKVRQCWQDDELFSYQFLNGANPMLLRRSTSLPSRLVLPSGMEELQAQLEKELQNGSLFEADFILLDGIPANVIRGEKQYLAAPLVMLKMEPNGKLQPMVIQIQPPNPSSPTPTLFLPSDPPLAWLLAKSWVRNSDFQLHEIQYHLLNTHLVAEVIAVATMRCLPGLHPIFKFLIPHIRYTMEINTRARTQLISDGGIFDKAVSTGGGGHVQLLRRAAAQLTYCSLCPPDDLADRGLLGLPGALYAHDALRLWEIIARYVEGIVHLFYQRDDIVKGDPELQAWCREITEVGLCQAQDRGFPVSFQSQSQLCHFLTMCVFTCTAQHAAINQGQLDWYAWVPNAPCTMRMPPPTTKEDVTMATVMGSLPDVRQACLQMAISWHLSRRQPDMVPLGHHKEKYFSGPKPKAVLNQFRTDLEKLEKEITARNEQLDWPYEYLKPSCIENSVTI

What follows are compounds tested against Polyunsaturated fatty acid lipoxygenase ALOX12 (Homo sapiens) (UniProt P18054) (assay: Primary qHTS assay for inhibitors of human arachidonate 12S-lipoxygenase (ALOX12): Round 2). Conditions: purified 12hLO, xylenol orange hydroperoxide absorbance; activity change, negative = inhibition: at 108 µM (top of the series).
Procedure, shortened: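 Purified human 12hLO (150 nM final) in 25 mM Hepes, 0.01% Triton X-100, pH 7.0 was preincubated 15 min at room temperature with compound. Then 40 uM arachidonic acid was added, 30 min. Hydroperoxide was read by Fe-XO absorbance ratio 573/405 nm.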
% is set by controls: 0 for no effect and ±100 for the full control effect; potency is the fitted concentration of half-maximal effect.

Question: With CCC1(c2ccccc2)C(=O)NC(=S)NC1=O as the compound, how does the Potency read?
Answer: inconclusive: 56.2 µM [inhibitor, partial curve, poor fit]

Question: O=C(O)C1=NOC2CN(Cc3cccnc3)CC12 (centres undefined) was tested. Which Potency did it give?
Answer: inconclusive: 14.1 µM [inhibitor, full curve]

Question: How did the Potency turn out when S=C1CN=C(c2ccccc2)c2cc(Cl)ccc2N1 was run?
Answer: inconclusive: 28.2 µM [inhibitor, partial curve, poor fit]

Question: C/C=C/CC1(CC)C(=O)NC(=S)NC1=O was tested. Which Potency did it give?
Answer: inconclusive: 50.1 µM [inhibitor, partial curve, poor fit]

Question: O=C(N/N=C/c1c(O)n(CCc2ccccc2)c(=O)[nH]c1=O)c1ccccc1O was tested. Which Potency did it give?
Answer: inconclusive: 14.1 µM [inhibitor, full curve]

Question: With CO[C@H]1C=C2CCN(C)[C@H]2C2c3cc4c(cc3C(=O)O[C@@H]21)OCO4 (some centres undefined) as the compound, how does the Potency read?
Answer: inconclusive: 0.398 µM [inhibitor, full curve]

Question: With COC(=O)C1=C(c2cccc3c2S(=O)(=O)c2ccccc2-3)C[C@@H]2CC[C@H]1N2C(=O)N1CCOCC1 as the compound, how does the Potency read?
Answer: inconclusive: 25.1 µM [inhibitor, full curve, poor fit]

Question: Which Potency does the source give for CN1CCN(C(=O)Cc2ccc(Cl)cc2Cl)CC1 here?
Answer: inactive

Question: Which Potency does the source give for CCCCC1(CCO)C(=O)NC(=S)NC1=O here?
Answer: inactive

Question: With COc1ccc2c(c1)C(c1ccc(N(CCCl)CCCl)cc1)=NCC2 as the compound, how does the Potency read?
Answer: inconclusive: 89.1 µM [inhibitor, partial curve, poor fit]

Question: How did the Potency turn out when O=c1c2ccccc2nc(-c2ccco2)n1-c1ccccc1 was run?
Answer: inconclusive: 44.7 µM [inhibitor, partial curve, poor fit]

Question: Which Potency does the source give for CC(C)(C)c1ccccc1O here?
Answer: inactive

Question: Cc1ccc2c(c1)C(Cc1nc3ccccc3c(=O)n1-c1ccc(Cl)cc1)C(=O)N2 (centres undefined) was tested. Which Potency did it give?
Answer: inconclusive: 44.7 µM [inhibitor, partial curve, poor fit]

Question: How did the activity change, negative = inhibition turn out when CC(O)CN1CCN(CC(=O)[O-])CCN(CC(=O)[O-])CCN(CC(=O)[O-])CC1.[Gd+3] (centres undefined) was run?
Answer: inactive: -6.63% [at 22.9 µM]

Question: Which Potency does the source give for COC(=O)C1=C(N)Oc2cc(C)oc(=O)c2C12C(=O)Nc1ccccc12 (centres undefined) here?
Answer: inactive

Question: Which Potency does the source give for COC(=O)C12CCc3c(ccc4cc(OC)ccc34)C1=CC(=O)C2 (centres undefined) here?
Answer: inconclusive: 50.1 µM [inhibitor, single point]

Question: Which Potency does the source give for CCc1nc2ccccc2c(=O)n1-c1ccccc1OC here?
Answer: inconclusive: 44.7 µM [inhibitor, partial curve, poor fit]

Question: Which Potency does the source give for Cc1ccccc1-n1c(Cn2ncc3c(N)ncnc32)nc2cccc(C)c2c1=O here?
Answer: inactive

Question: How did the Potency turn out when COC1=CC(=O)OC(CCc2ccc3c(c2)OCO3)C1 (centres undefined) was run?
Answer: inactive

Question: For c1ccc2c(CC3CN4CCCC4CN3)c[nH]c2c1 (centres undefined), which Potency is on record?
Answer: inconclusive: 50.1 µM [inhibitor, partial curve, poor fit]

Question: How did the Potency turn out when CC(=O)c1c(O)n(C2CCCCCC2)c(=O)[nH]c1=O was run?
Answer: inconclusive: 25.1 µM [inhibitor, partial curve, poor fit]

Question: With CS(=O)(=O)c1ccc(C2=C(CNC(=O)c3ccc([N+](=O)[O-])cc3)[C@H]3CC[C@@H](C2)N3CCOc2ccccc2)cc1 as the compound, how does the Potency read?
Answer: inconclusive: 35.5 µM [inhibitor, partial curve, poor fit]

Question: Which Potency does the source give for COC(=O)C(O)(c1c(C)[nH]c2ccccc12)C(F)(F)F (centres undefined) here?
Answer: inactive

Question: With Cc1ccc(-c2cc(-c3ccccc3)cc(-c3ccccc3)[n+]2-c2ccccc2)cc1 as the compound, how does the Potency read?
Answer: inconclusive: 79.4 µM [inhibitor, partial curve, poor fit]

Question: How did the Potency turn out when Cc1nc2cc(C(F)(F)F)ccc2n1C1CCN(Cc2nnnn2Cc2cccs2)CC1 was run?
Answer: inactive

Question: For S=C1CN=C(c2ccccc2Cl)c2cc(Cl)ccc2N1, which Potency is on record?
Answer: inconclusive: 31.6 µM [inhibitor, partial curve, poor fit]

Question: Cc1nc(CCN)no1 was tested. Which Potency did it give?
Answer: inconclusive: 7.94 µM [inhibitor, full curve]

Question: Clc1cccc(Cl)c1CN1CCN(c2ccccc2)CC1 was tested. Which Potency did it give?
Answer: inconclusive: 0.355 µM [inhibitor, full curve, poor fit]

Question: C[N+](C)(C)CC1CCCc2ccccc2C1=O (centres undefined) was tested. Which Potency did it give?
Answer: inconclusive: 56.2 µM [inhibitor, partial curve, poor fit]

Question: With NC(=S)c1cn(C2OC(CO)C(O)C2O)c2ncnc(N)c12 (centres undefined) as the compound, how does the Potency read?
Answer: inactive

Question: For CC(C)NC(=O)N1[C@H]2CC[C@@H]1c1cnc(-c3ccc(F)cc3)nc1C2, which Potency is on record?
Answer: inactive

Question: C=Cn1ccnc1P(=S)(c1cc(N(CC)CC)ns1)c1nccn1C=C was tested. Which Potency did it give?
Answer: inconclusive: 89.1 µM [inhibitor, partial curve, poor fit]

Question: Which Potency does the source give for CC(C)(C)C(=O)c1cn(CC(=O)NCc2ccco2)c2ccccc12 here?
Answer: inconclusive: 50.1 µM [inhibitor, partial curve, poor fit]

Question: CCOC(=O)C(=O)NC1CCSC1=O (centres undefined) was tested. Which Potency did it give?
Answer: inconclusive: 4.47 µM [inhibitor, full curve, poor fit]

Question: NC(=O)c1cn(C2CCCCC2)c2ccccc2c1=O was tested. Which Potency did it give?
Answer: inactive

Question: COc1ccccc1N1CCN(Cc2c(F)cccc2F)CC1 was tested. Which Potency did it give?
Answer: inactive

Question: For O=c1[nH]c(=O)n(-c2ccccc2Cl)c(O)c1C=NCCN1CCCCC1, which Potency is on record?
Answer: inactive

Question: How did the Potency turn out when CCCCCc1nc2ccccc2c(=O)n1-c1ccc(C)cc1 was run?
Answer: inactive

Question: For CC[C@H]1CN2CC[C@H]1C[C@@H]2CNC(=S)Nc1ccc(N(C)C)cc1, which Potency is on record?
Answer: inactive

Question: Which Potency does the source give for CSCCC(c1nnnn1C1CCCC1)N1CCC(n2c(=O)[nH]c3ccccc32)CC1 (centres undefined) here?
Answer: inconclusive: 35.5 µM [inhibitor, single point]

Question: Which Potency does the source give for Cc1ccccc1-n1nc(C)c2c1NC(=O)CSC2c1ccc(N(C)C)cc1 (centres undefined) here?
Answer: inconclusive: 56.2 µM [inhibitor, partial curve, poor fit]

Question: How did the Potency turn out when COC(=O)C1=C(c2ccc(OCc3ccccc3)cc2)C[C@@H]2CC[C@H]1N2C(=O)NCc1ccccc1OC was run?
Answer: inactive

Question: With O=c1ccc(-c2ccc(Cl)cc2)c2n1C[C@H]1C[C@@H]2CN(S(=O)(=O)c2ccccc2)C1 as the compound, how does the Potency read?
Answer: inconclusive: 22.4 µM [inhibitor, full curve]

Question: For COc1ccc(C=C2C(=O)NC(=S)NC2=O)cc1OC, which Potency is on record?
Answer: inconclusive: 50.1 µM [inhibitor, partial curve, poor fit]

Question: Which Potency does the source give for Cc1ccc2[nH]c(C)c(CCN)c2c1 here?
Answer: inconclusive: 7.94 µM [inhibitor, full curve, poor fit]

Question: For CCOC(=O)c1c(C)n(C2CCCC2)c2ccc(O)cc12, which Potency is on record?
Answer: inactive

Question: CC1OC(OC2CCC3(C=O)[C@H]4CCC5(C)C(C6=CC(=O)OC6)CCC5(O)[C@@H]4CCC3(O)C2)C(O)C(O)C1O (some centres undefined) was tested. Which Potency did it give?
Answer: inconclusive: 50.1 µM [inhibitor, single point]

Question: With Cc1ccc(NC(=O)CN2C(=O)CN=C(c3ccccc3)c3ccccc32)cc1 as the compound, how does the Potency read?
Answer: inactive

Question: CCNc1ccc(P(=S)(N(C)C)N(C)C)cc1 was tested. Which Potency did it give?
Answer: inconclusive: 4.47 µM [inhibitor, full curve, poor fit]

Question: How did the Potency turn out when CCOP1(=S)Oc2cc3c(cc2C(C(=O)OC)(C(F)(F)F)O1)OCO3 (centres undefined) was run?
Answer: inconclusive: 35.5 µM [inhibitor, partial curve]

Question: Which Potency does the source give for CCOc1cncc(/C=C/CCNC)c1 here?
Answer: active: 17.8 µM

Question: CCN(CC)CCCOC(=O)C(OC(C)C)(c1ccccc1)c1ccccc1 was tested. Which Potency did it give?
Answer: inconclusive: 31.6 µM [inhibitor, partial curve, poor fit]

Question: How did the Potency turn out when CCN1CCCC12Cc1ccccc1CN(C(=O)Cc1ccccc1)C2 (centres undefined) was run?
Answer: inconclusive: 56.2 µM [inhibitor, partial curve, poor fit]

Question: For COc1ccc(/C=C2\C(=O)NC(=O)N(CCC3=CCCCC3)C2=O)c(OC)c1, which Potency is on record?
Answer: inconclusive: 44.7 µM [inhibitor, partial curve, poor fit]

Question: How did the Potency turn out when Clc1ccc(N2CCN(CC3[C@H]4CNC[C@@H]34)CC2)nc1 (some centres undefined) was run?
Answer: active: 31.6 µM

Question: How did the Potency turn out when C/C(=C\c1cn(C)c2ccccc12)[N+](=O)[O-] was run?
Answer: inconclusive: 39.8 µM [inhibitor, partial curve, poor fit]

Question: COc1ccc(CNCCc2c[nH]c3ccccc23)cc1 was tested. Which Potency did it give?
Answer: active: 0.631 µM

Question: Which Potency does the source give for Cc1ncc(C[n+]2csc(CCO)c2C)c(=O)[nH]1 here?
Answer: inconclusive: 89.1 µM [inhibitor, partial curve, poor fit]

Question: Which Potency does the source give for COc1ccc(CN2CC3CC(C2)c2cccc(=O)n2C3)cc1OC (centres undefined) here?
Answer: inconclusive: 7.08 µM [inhibitor, full curve, poor fit]

Question: With CC(Cc1ccc(O)cc1)NCC(O)c1ccc(O)c(O)c1 (centres undefined) as the compound, how does the Potency read?
Answer: inconclusive: 3.55 µM [inhibitor, full curve, poor fit]

Question: Which Potency does the source give for Ic1cncc(OC[C@@H]2CCN2)c1 here?
Answer: inconclusive: 25.1 µM [inhibitor, partial curve, poor fit]

Question: With COc1cc2c(cc1OC)-c1c(OC)c(OC)cc3c1C(C2)N(C)CC3 (centres undefined) as the compound, how does the Potency read?
Answer: inconclusive: 89.1 µM [inhibitor, partial curve, poor fit]

Question: CC(=NCCCn1ccnc1)c1c(O)n(C2CCCCC2)c(=O)[nH]c1=O was tested. Which Potency did it give?
Answer: inconclusive: 112 µM [inhibitor, single point]

Question: Which Potency does the source give for N#CC(C#N)=NNc1ccc(OC(F)(F)F)cc1 here?
Answer: inconclusive: 126 µM [inhibitor, partial curve, poor fit]

Question: For CCCCc1nn2c(=O)cc(COC(=O)Cc3ccccc3)nc2s1, which Potency is on record?
Answer: inconclusive: 7.08 µM [inhibitor, full curve, poor fit]

Question: How did the Potency turn out when CN1CCC2(CC1)N1CC3(C)CN2CC(C)(C1)C3=O was run?
Answer: inactive

Question: With c1ccc(CN2CCN(Cc3ccc4c(c3)OCCO4)CC2)cc1 as the compound, how does the Potency read?
Answer: inconclusive: 50.1 µM [inhibitor, partial curve, poor fit]

Question: CCC(=O)O[C@H]1CC[C@H]2[C@@H]3CCC4=CC(=O)CC[C@]4(C)[C@H]3CC[C@]12C was tested. Which Potency did it give?
Answer: inactive

Question: How did the Potency turn out when COc1ccc2[nH]cc(CCNCc3ccc(OC)c(OC)c3)c2c1 was run?
Answer: inconclusive: 112 µM [inhibitor, partial curve, poor fit]
